From paper PMC6021368
These are yes or no findings as the source states them, for the method shown. For some of these results: Binding seen in cells or lysates may run through a third protein. Some results given as binding are weak or reduced against the parent protein; the word gives no strength. For some of these results: Tags and fused reporters may be left off the sequences shown. One block for each molecule: values may come before it.

Protein sequences, listed by entry. Tags and fused reporters are not part of them.
UniProt Q96GD4: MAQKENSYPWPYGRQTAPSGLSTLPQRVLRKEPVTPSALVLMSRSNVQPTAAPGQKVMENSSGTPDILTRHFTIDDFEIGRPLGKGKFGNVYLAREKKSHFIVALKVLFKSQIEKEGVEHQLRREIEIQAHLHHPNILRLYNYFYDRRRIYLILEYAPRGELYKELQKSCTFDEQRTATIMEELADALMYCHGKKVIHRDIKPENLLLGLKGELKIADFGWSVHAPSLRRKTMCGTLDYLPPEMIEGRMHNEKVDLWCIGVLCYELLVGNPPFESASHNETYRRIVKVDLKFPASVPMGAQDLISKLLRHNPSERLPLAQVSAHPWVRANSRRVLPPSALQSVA
UniProt Q8WUM4: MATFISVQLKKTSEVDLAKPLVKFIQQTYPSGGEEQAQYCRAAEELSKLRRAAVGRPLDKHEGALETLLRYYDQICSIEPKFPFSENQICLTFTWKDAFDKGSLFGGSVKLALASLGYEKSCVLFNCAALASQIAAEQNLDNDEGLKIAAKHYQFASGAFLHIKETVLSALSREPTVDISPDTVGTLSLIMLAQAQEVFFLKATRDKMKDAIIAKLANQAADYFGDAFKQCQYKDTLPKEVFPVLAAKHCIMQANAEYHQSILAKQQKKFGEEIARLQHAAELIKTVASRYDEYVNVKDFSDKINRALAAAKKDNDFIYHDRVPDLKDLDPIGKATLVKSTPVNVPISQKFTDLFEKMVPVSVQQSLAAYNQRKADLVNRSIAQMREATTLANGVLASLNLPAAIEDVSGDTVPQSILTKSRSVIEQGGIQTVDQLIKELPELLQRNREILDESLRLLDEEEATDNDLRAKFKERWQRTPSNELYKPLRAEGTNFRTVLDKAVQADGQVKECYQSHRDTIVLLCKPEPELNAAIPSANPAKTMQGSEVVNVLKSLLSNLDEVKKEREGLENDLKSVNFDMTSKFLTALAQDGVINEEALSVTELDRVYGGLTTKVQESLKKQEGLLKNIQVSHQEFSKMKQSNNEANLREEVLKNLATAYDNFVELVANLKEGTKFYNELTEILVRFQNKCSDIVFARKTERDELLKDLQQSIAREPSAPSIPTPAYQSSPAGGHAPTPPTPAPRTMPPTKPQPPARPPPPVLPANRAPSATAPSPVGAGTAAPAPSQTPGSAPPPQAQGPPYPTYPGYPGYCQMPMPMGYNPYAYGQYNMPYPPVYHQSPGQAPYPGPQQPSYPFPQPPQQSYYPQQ
UniProt Q99816: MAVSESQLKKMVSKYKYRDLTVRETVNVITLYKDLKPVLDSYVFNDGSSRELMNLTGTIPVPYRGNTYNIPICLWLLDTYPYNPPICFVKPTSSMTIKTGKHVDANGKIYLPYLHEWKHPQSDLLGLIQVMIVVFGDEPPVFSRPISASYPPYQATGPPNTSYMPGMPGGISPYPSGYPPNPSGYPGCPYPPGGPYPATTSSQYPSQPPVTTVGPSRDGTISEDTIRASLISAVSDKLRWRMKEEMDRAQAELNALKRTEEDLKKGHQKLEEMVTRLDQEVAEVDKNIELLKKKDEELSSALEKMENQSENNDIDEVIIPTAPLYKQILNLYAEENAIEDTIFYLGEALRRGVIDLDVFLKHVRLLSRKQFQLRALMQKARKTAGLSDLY

Columns and labels:
[1] = target: GST-HIPK2(FL) (UniProt Q9QZR5); assay: pull-down; GST-fusion proteins purified from H1299 on glutathione sepharose beads as bait, incubated with 0.6 mg of telophase total cell extract (T-TCE) of HeLa cells in 50 mM Tris-HCl pH 7.5, 200 mM NaCl, 0.5% NP40; Western blot; only the target purified
[2] = target: GFP-HIPK2 (UniProt Q9QZR5); assay: pull-down; GFP-HIPK2 held on anti-GFP Ab-sepharose beads (GFP-immunoprecipitation), incubated with recombinant GST-Aurora-B in 50 mM Tris-HCl pH 7.5 at 150 and 250 mM NaCl; Western blot; both purified
[3] = target: T1, GST-HIPK2 deletion mutant (1-845) (UniProt Q9QZR5); assay: pull-down; GST-fusion proteins purified from H1299 on glutathione sepharose beads as bait, incubated with 0.6 mg of telophase total cell extract (T-TCE) of HeLa cells in 50 mM Tris-HCl pH 7.5, 200 mM NaCl, 0.5% NP40; Western blot; only the target purified
T1 sequence: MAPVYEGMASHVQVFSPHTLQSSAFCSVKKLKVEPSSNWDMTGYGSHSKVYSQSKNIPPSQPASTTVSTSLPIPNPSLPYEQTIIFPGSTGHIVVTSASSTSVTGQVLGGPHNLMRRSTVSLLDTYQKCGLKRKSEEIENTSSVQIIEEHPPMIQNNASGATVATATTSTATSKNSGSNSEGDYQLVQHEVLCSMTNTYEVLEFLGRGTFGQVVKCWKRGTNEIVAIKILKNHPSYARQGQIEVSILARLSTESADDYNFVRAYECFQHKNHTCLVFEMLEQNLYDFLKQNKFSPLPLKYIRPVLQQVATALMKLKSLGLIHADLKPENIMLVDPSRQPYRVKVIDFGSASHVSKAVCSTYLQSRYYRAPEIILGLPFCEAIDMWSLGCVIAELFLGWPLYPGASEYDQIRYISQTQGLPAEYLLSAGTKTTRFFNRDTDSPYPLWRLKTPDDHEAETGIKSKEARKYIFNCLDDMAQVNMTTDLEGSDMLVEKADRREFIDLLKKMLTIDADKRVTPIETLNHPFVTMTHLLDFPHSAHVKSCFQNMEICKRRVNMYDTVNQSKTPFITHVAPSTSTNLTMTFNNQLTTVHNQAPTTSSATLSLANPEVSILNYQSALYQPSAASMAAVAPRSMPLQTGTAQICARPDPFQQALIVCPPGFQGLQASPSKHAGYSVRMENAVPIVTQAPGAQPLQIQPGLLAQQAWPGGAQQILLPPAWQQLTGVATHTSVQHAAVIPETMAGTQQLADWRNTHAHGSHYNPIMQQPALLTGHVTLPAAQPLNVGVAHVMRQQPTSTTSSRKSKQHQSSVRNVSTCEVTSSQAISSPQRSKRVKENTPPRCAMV

binding [1]: no binding
Molecule: Aurora-B (from UniProt Q96GD4 1-344) (enzyme)

binding [2]: no binding
Molecule: recombinant glutathione S-transferase (GST)-Aurora-B (from UniProt Q96GD4 1-344) (enzyme)

binding [1]: no binding
Molecule: ALIX (from UniProt Q8WUM4 1-868)

binding [1]: no binding
Molecule: TSG101 (from UniProt Q99816 1-390)

binding [1]: binds | binding [3]: no binding
B1: MgcRacGAP (protein, UniProt Q9H0H5 1-632)
chain: MDTMMLNVRNLFEQLVRRVEILSEGNEVQFIQLAKDFEDFRKKWQRTDHELGKYKDLLMKAETERSALDVKLKHARNQVDVEIKRRQRAEADCEKLERQIQLIREMLMCDTSGSIQLSEEQKSALAFLNRGQPSSSNAGNKRLSTIDESGSILSDISFDKTDESLDWDSSLVKTFKLKKREKRRSTSRQFVDGPPGPVKKTRSIGSAVDQGNESIVAKTTVTVPNDGGPIEAVSTIETVPYWTRSRRKTGTLQPWNSDSTLNSRQLEPRTETDSVGTPQSNGGMRLHDFVSKTVIKPESCVPCGKRIKFGKLSLKCRDCRVVSHPECRDRCPLPCIPTLIGTPVKIGEGMLADFVSQTSPMIPSIVVHCVNEIEQRGLTETGLYRISGCDRTVKELKEKFLRVKTVPLLSKVDDIHAICSLLKDFLRNLKEPLLTFRLNRAFMEAAEITDEDNSIAAMYQAVGELPQANRDTLAFLMIHLQRVAQSPHTKMDVANLAKVFGPTIVAHAVPNPDPVTMLQDIKRQPKVVERLLSLPLEYWSQFMMVEQENIDPLHVIENSNAFSTPQTPDIKVSLLGPVTTPEHQLLKTPSSSSLSQRVRSTLTKNTPRFGSKSKSATNLGRQGNFFASPMLK

binding [1]: no binding
B2: CEP55 (protein, UniProt Q53EZ4 1-464)
chain: MSSRSTKDLIKSKWGSKPSNSKSETTLEKLKGEIAHLKTSVDEITSGKGKLTDKERHRLLEKIRVLEAEKEKNAYQLTEKDKEIQRLRDQLKARYSTTTLLEQLEETTREGERREQVLKALSEEKDVLKQQLSAATSRIAELESKTNTLRLSQTVAPNCFNSSINNIHEMEIQLKDALEKNQQWLVYDQQREVYVKGLLAKIFELEKKTETAAHSLPQQTKKPESEGYLQEEKQKCYNDLLASAKKDLEVERQTITQLSFELSEFRRKYEETQKEVHNLNQLLYSQRRADVQHLEDDRHKTEKIQKLREENDIARGKLEEEKKRSEELLSQVQFLYTSLLKQQEEQTRVALLEQQMQACTLDFENEKLDRQHVQHQLHVILKELRKARNQITQLESLKQLHEFAITEPLVTFQGETENREKVAASPKSPTAALNESLVECPKCNIQYPATEHRDLLVHVEYCSK
